Laboratory results taken from the supplement of paper PMC10849652.
This is one part of the list.

Chains of the proteins cited; added tags and fusions are not shown. Lines headed by an entry give the natural chain unless they say otherwise; changes in a name come on top.
UniProt Q9BXJ8: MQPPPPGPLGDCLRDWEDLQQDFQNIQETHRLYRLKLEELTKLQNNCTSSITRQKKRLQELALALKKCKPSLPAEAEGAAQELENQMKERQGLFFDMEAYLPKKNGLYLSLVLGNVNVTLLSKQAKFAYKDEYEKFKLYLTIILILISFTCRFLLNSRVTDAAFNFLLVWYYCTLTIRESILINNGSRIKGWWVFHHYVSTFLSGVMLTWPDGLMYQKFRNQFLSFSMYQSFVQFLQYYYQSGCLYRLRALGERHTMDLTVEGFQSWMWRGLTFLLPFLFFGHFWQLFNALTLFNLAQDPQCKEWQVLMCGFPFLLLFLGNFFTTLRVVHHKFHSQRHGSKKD
UniProt Q8N131: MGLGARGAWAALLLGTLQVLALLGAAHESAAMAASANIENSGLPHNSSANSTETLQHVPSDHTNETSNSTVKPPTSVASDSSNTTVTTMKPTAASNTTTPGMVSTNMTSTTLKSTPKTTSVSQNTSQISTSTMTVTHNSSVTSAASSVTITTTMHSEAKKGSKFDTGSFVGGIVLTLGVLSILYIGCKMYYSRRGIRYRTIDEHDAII
UniProt Q969X1: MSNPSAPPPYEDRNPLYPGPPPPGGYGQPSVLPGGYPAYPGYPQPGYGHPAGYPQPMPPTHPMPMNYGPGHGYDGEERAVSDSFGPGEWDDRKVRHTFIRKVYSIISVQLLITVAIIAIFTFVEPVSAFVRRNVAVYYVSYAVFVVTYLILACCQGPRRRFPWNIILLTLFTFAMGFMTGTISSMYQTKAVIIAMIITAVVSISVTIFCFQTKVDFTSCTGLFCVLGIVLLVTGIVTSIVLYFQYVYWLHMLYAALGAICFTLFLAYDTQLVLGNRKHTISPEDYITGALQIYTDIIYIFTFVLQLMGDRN
UniProt Q96I45: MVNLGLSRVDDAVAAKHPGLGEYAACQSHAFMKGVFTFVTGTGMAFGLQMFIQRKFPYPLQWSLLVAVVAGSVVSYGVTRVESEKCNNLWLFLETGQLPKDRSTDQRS
UniProt Q96AN5: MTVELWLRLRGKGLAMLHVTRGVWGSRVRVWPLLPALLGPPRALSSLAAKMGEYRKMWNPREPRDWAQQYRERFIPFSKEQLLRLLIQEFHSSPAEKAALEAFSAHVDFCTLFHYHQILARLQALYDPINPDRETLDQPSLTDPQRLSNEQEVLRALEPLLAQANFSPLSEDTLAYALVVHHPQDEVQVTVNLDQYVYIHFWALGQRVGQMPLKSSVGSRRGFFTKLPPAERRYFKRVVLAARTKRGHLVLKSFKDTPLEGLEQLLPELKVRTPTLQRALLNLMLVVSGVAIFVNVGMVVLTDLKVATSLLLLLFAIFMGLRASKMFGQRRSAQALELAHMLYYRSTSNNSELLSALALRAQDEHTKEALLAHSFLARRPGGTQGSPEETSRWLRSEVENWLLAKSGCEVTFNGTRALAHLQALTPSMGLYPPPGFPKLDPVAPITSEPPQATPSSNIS
UniProt Q9NQ34: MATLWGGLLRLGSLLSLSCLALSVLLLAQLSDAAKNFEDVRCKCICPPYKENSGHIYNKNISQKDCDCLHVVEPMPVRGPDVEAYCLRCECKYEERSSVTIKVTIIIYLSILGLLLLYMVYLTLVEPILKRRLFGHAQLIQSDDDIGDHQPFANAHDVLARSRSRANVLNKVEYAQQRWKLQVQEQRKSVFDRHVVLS
UniProt O94876, whole entry, looked up: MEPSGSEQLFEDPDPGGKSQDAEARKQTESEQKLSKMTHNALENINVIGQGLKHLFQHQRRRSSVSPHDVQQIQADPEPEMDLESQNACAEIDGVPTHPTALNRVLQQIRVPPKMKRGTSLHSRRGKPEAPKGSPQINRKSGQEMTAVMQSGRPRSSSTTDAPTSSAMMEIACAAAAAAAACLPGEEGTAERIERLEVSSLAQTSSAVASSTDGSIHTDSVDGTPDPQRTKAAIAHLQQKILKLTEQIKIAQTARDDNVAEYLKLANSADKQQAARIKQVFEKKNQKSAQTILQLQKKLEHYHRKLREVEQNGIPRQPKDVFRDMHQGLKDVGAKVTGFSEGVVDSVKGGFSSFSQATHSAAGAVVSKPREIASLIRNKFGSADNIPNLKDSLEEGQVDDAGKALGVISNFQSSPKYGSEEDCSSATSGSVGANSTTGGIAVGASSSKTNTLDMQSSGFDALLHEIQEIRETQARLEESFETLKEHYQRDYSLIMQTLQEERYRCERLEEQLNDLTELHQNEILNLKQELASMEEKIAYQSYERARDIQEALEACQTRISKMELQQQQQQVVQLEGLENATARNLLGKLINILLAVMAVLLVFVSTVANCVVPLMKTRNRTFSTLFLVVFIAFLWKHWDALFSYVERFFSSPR
UniProt P55061, whole entry, looked up: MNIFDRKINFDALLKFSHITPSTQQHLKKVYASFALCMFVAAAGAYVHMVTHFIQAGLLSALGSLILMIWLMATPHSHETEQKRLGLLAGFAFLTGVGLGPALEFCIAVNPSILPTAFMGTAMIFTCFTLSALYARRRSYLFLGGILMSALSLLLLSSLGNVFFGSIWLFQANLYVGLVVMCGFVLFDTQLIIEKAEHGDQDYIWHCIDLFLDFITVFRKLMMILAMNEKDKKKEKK
UniProt Q9BVK8: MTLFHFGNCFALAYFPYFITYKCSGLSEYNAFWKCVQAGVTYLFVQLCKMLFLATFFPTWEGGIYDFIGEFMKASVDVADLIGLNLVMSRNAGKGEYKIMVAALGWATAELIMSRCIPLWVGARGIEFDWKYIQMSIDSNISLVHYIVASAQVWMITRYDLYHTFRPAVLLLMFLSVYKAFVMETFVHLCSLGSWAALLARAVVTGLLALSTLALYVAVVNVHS
UniProt Q8IY95: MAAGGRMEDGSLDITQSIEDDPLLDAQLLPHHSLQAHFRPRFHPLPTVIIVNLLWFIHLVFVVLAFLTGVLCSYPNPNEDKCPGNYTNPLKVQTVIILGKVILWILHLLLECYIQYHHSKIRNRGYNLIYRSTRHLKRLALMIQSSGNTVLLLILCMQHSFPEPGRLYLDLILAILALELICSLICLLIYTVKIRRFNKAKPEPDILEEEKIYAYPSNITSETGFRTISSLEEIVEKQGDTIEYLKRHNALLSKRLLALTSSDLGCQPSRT
UniProt O00206, whole entry, looked up: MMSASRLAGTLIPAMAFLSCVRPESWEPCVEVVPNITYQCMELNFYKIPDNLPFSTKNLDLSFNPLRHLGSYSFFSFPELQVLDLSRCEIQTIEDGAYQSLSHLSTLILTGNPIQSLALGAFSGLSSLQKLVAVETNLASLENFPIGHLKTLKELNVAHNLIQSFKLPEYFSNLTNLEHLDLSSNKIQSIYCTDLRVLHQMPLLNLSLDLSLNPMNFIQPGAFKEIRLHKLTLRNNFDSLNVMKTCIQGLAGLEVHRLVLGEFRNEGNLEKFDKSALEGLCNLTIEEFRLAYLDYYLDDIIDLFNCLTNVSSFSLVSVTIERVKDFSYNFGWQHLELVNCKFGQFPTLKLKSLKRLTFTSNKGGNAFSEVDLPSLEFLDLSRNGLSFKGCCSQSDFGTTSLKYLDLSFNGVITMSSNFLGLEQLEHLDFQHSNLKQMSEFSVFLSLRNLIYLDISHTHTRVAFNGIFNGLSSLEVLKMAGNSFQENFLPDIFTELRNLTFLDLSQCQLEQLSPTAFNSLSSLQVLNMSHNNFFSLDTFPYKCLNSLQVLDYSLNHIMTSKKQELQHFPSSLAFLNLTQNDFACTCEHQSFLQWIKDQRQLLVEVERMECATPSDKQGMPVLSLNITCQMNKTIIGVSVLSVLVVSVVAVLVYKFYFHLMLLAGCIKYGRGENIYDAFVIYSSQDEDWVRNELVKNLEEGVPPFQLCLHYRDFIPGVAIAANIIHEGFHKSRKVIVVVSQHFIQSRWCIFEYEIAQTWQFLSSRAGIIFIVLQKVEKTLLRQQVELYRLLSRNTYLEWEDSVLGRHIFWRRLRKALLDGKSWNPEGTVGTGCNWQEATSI
UniProt Q53S58: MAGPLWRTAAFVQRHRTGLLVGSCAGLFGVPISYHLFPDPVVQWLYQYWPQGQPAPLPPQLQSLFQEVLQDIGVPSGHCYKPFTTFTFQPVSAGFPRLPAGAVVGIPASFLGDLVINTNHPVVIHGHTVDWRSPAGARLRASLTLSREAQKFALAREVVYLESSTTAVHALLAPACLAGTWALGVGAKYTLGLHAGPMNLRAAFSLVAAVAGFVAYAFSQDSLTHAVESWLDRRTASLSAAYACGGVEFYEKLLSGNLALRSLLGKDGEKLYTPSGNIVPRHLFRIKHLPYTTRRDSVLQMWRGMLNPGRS
UniProt Q9NVA4: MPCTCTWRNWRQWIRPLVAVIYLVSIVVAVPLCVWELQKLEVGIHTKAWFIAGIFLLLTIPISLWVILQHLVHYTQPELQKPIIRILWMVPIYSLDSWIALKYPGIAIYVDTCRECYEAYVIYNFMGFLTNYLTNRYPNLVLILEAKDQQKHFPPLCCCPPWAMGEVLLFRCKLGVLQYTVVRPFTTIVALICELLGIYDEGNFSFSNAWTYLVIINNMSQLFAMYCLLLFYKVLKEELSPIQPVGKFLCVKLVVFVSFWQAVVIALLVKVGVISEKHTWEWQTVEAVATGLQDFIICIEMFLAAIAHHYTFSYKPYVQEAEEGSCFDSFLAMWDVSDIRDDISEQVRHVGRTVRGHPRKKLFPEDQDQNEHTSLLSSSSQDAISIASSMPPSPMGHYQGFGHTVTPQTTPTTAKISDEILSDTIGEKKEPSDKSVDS
UniProt Q9NWH2: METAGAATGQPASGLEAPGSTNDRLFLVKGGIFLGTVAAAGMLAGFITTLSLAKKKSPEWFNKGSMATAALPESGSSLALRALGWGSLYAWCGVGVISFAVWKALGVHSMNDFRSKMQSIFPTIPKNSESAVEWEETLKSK
UniProt Q86WV6: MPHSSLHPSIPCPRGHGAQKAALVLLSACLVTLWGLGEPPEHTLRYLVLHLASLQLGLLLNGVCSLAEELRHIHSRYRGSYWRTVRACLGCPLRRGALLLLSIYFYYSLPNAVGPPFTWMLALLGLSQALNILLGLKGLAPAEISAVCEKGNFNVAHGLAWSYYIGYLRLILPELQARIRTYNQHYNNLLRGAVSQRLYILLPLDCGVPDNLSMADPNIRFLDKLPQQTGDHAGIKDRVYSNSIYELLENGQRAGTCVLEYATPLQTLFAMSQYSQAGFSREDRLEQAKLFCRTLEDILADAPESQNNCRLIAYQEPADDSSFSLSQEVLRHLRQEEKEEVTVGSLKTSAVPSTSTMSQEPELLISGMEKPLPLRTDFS
UniProt Q9NX61: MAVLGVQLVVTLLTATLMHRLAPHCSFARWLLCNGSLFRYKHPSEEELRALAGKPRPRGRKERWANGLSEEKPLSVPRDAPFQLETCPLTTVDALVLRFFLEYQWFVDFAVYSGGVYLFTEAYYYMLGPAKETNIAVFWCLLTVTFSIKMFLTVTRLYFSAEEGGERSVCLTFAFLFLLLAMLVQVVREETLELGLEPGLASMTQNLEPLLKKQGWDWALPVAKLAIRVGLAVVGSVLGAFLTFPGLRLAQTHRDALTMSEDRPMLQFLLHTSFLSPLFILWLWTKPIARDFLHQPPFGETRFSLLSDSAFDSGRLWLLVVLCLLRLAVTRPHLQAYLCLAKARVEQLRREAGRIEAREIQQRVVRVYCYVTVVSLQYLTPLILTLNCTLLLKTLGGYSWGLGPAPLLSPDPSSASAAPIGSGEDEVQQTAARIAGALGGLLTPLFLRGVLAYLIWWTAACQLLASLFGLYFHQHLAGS
UniProt Q5BJH2: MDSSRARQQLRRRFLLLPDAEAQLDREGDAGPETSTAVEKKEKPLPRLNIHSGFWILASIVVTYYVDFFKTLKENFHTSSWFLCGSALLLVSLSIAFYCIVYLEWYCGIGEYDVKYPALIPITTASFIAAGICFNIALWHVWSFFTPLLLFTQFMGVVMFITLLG
UniProt Q9NUM4, whole entry, looked up: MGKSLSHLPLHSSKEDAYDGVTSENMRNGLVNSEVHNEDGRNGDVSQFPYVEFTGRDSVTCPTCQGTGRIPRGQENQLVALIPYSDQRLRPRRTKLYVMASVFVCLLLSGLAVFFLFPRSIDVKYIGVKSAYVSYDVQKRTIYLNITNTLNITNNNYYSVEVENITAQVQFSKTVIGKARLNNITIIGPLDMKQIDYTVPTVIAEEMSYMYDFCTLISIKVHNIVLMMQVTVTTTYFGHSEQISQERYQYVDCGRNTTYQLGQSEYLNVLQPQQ

Legend:
Test in all cases: log2 fold change, soluble protein after heating vs DMSO (PISA); higher = thermal stabilisation; K562 cells, 10 uM, 30 min; active = over 0.2 and 3.5 SD of the protein, either way, in both replicates (recomputed)
[1] = compound: CS(=O)(=O)c1ccc(-c2cnc(N)c(C(=O)Nc3ccccc3)n2)cc1
Outline: (§1)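 K562 cells at 2×10^6 cells/mL were given 10 μM compound for 30 min. Aliquots then went through 3 min of heating across 48°C-58°C, were pooled, and were extracted in PBS with 0.5% NP-40 at 4°C, and the supernatant after 21,000xg for 90 min was quantified by TMTpro 16plex LC-MS/MS with channel sums equalised. Thermal stability relative to control samples, from duplicates, is given as log2 fold change.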

crizotinib = compound: C[C@@H](Oc1cc(-c2cnn(C3CCNCC3)c2)cnc1N)c1c(Cl)ccc(F)c1Cl [crizotinib]
Outline: as §1

[2] = compound: C[C@@H]1COCCN1C2=NC(=NC(=C2)C3(CC3)S(=O)(=O)C)C4=C5C=CNC5=CC=C4
Outline: as §1

[3] = compound: C[C@H](C1=CC=C(C=C1)C(=O)NC2=C3C=CNC3=NC=C2)N
Outline: as §1

gandotinib = compound: Cc1cc(Nc2cc(CN3CCOCC3)c3nc(C)c(Cc4ccc(Cl)cc4F)n3n2)n[nH]1 [gandotinib]
Outline: as §1

[4] = compound: Cc1cc(SCc2sc(-c3ccc(C(F)(F)F)cc3)nc2C)ccc1OCC(=O)O
Outline: as §1

doramapimod = compound: Cc1ccc(-n2nc(C(C)(C)C)cc2NC(=O)Nc2ccc(OCCN3CCOCC3)c3ccccc23)cc1 [doramapimod]
Outline: as §1

ispinesib = compound: Cc1ccc(C(=O)N(CCCN)[C@@H](c2nc3cc(Cl)ccc3c(=O)n2Cc2ccccc2)C(C)C)cc1 [ispinesib]
Outline: as §1

bafetinib = compound: Cc1ccc(NC(=O)c2ccc(CN3CC[C@H](N(C)C)C3)c(C(F)(F)F)c2)cc1Nc1nccc(-c2cncnc2)n1 [bafetinib]
Outline: as §1

[5] = compound: Cc1cccc(CC(=O)N2CCc3c2ccc(-c2cn(C)c4ncnc(N)c24)c3F)n1
Outline: as §1

nilotinib = compound: Cc1cn(-c2cc(NC(=O)c3ccc(C)c(Nc4nccc(-c5cccnc5)n4)c3)cc(C(F)(F)F)c2)cn1 [nilotinib]
Outline: as §1

[6] = compound: Cc1nc(Nc2n[nH]c3c2CN(C(=O)N[C@H](CN(C)C)c2ccccc2)C3(C)C)c2sccc2n1
Outline: as §1

dasatinib = compound: Cc1nc(Nc2ncc(C(=O)Nc3c(C)cccc3Cl)s2)cc(N2CCN(CCO)CC2)n1 [dasatinib]
Outline: as §1

[7] = compound: Cc1ncc(-c2ccnc(Nc3ccc(S(C)(=O)=O)cc3)n2)n1C(C)C
Outline: as §1

[8] = compound: Cn1cc(-c2ccc3c(c2)CCN3C(=O)Cc2cccc(C(F)(F)F)c2)c2c(N)ncnc21
Outline: as §1

[9] = compound: Cn1cc(-c2ccc3nnc(C(F)(F)c4ccc5ncccc5c4)n3n2)cn1
Outline: as §1

tipifarnib = compound: Cn1cncc1[C@@](N)(c1ccc(Cl)cc1)c1ccc2c(c1)c(-c1cccc(Cl)c1)cc(=O)n2C [tipifarnib]
Outline: as §1

mubritinib = compound: FC(F)(F)c1ccc(/C=C/c2nc(COc3ccc(CCCCn4ccnn4)cc3)co2)cc1 [mubritinib]
Outline: as §1

duvelisib = compound: C[C@H](Nc1ncnc2nc[nH]c12)c1cc2cccc(Cl)c2c(=O)n1-c1ccccc1 [duvelisib]
Outline: as §1

tozasertib = compound: Cc1cc(Nc2cc(N3CCN(C)CC3)nc(Sc3ccc(NC(=O)C4CC4)cc3)n2)n[nH]1 [tozasertib]
Outline: as §1

Measured: log2 fold change

TMEM120A (UniProt Q9BXJ8)
inactive: [1] -0.137 | crizotinib 0.096 | [2] 0.175 | [3] -0.11 | gandotinib -0.125 | [4] -0.055 | doramapimod -0.077 | ispinesib 0.033 | [5] -0.054 | nilotinib -0.009 | [6] -0.038 | dasatinib 0.046 | [7] -0.09 | [8] 0.053 | [9] 0.057 | tipifarnib 0.011 | mubritinib 0.048
active: bafetinib 0.454

TMEM123 (UniProt Q8N131)
inactive: [1] -0.053 | [2] 0.015 | duvelisib 0.036 | tozasertib -0.054 | [4] -0.267 | bafetinib 0.068 | nilotinib -0.034 | [6] 0.053 | dasatinib 0.093 | [7] -0.003 | tipifarnib 0.139 | mubritinib -0.054

TMBIM1 (UniProt Q969X1)
inactive: [1] -0.03 | [2] -0.043 | [3] 0.274 | gandotinib -0.017 | [4] -0.026 | ispinesib 0.303 | bafetinib 0.068 | [5] -0.07 | nilotinib 0.168 | [6] -0.044 | dasatinib -0.01 | [7] 0.149 | [8] -0.06 | [9] -0.105 | tipifarnib -0.318 | mubritinib 0.025

TMEM141 (UniProt Q96I45)
inactive: [1] 0.057 | crizotinib 0.151 | [3] -0.026 | duvelisib 0.13 | gandotinib 0.086 | tozasertib -0.032 | [4] -0.032 | doramapimod 0.076 | bafetinib -0.026 | [5] 0.274 | nilotinib 0.012 | [6] -0.029 | dasatinib 0 | [7] -0.022 | [8] 0.048 | tipifarnib 0.056 | mubritinib 0.013

Two records drawn at random from those above:
TMBIM1 (UniProt Q969X1)
inactive: [1] -0.03 | [2] -0.043 | [3] 0.274 | gandotinib -0.017 | [4] -0.026 | ispinesib 0.303 | bafetinib 0.068 | [5] -0.07 | nilotinib 0.168 | [6] -0.044 | dasatinib -0.01 | [7] 0.149 | [8] -0.06 | [9] -0.105 | tipifarnib -0.318 | mubritinib 0.025

TMEM141 (UniProt Q96I45)
inactive: [1] 0.057 | crizotinib 0.151 | [3] -0.026 | duvelisib 0.13 | gandotinib 0.086 | tozasertib -0.032 | [4] -0.032 | doramapimod 0.076 | bafetinib -0.026 | [5] 0.274 | nilotinib 0.012 | [6] -0.029 | dasatinib 0 | [7] -0.022 | [8] 0.048 | tipifarnib 0.056 | mubritinib 0.013

Next records follow.

TMEM143 (UniProt Q96AN5)
inactive: [1] 0 | crizotinib 0.218 | tozasertib -0.045 | doramapimod 0.023 | mubritinib -0.148

TMEM9B (UniProt Q9NQ34)
inactive: [1] -0.035 | crizotinib -0.011 | [2] 0.105 | [3] 0.061 | gandotinib -0.116 | doramapimod 0.023 | ispinesib -0.211 | bafetinib -0.039 | [5] 0.036 | nilotinib 0.005 | [6] 0.009 | [7] -0.015 | [8] 0.051 | [9] 0.164 | tipifarnib -0.108 | mubritinib 0.009

TMEM201 (UniProt Q5SNT2)
inactive: [1] 0.058 | [2] 0.159 | [3] -0.002 | duvelisib -0.121 | gandotinib 0.013 | tozasertib -0.096 | [4] 0.106 | ispinesib -0.133 | bafetinib -0.059 | [5] -0.02 | nilotinib -0.064 | [6] -0.055 | dasatinib -0.285 | [7] -0.178 | [8] -0.094 | [9] -0.079 | mubritinib -0.39

TMCC1 (UniProt O94876)
inactive: [1] -0.102 | [2] -0.017 | [3] 0.151 | duvelisib 0.055 | gandotinib -0.098 | [4] 0.033 | [5] -0.185 | dasatinib -0.11 | [8] -0.173 | mubritinib -0.046

TMBIM6 isoform 2 (UniProt P55061)
inactive: [1] -0.066 | [2] 0.033 | [3] -0.049 | [4] -0.03 | doramapimod -0.053 | ispinesib -0.407 | bafetinib -0.135 | nilotinib -0.158 | [6] 0.028 | dasatinib -0.081 | [7] -0.037 | [8] 0.063 | [9] -0.073 | tipifarnib -0.269 | mubritinib 0.036
active: crizotinib -0.451

TMEM147 (UniProt Q9BVK8)
inactive: [1] -0.159 | [2] 0.145 | [3] -0.175 | duvelisib 0.16 | tozasertib -0.18 | [4] 0.116 | ispinesib -0.122 | bafetinib -0.056 | nilotinib -0.032 | [6] 0.037 | dasatinib -0.018 | [7] -0.065 | [8] 0.02 | [9] 0.026 | tipifarnib 0.224 | mubritinib -0.085

TMEM192 (UniProt Q8IY95)
inactive: [1] 0.074 | [2] 0.043 | [3] 0.04 | gandotinib 0.059 | [4] -0.022 | doramapimod 0.024 | bafetinib -0.148 | [5] -0.083 | nilotinib 0.019 | [6] -0.002 | dasatinib 0.109 | [7] -0.042 | [8] -0.034 | [9] -0.051 | tipifarnib 0.051 | mubritinib -0.032
active: crizotinib -0.45 | ispinesib -0.318

TLR4 (UniProt O00206)
inactive: [1] 0.078 | [3] 0.274 | duvelisib 0.188 | gandotinib 0 | tozasertib -0.167 | [4] -0.117 | ispinesib -0.028 | bafetinib -0.061 | [5] -0.126 | dasatinib 0.173 | [8] -0.078 | [9] 0.002 | tipifarnib 0.115

TMEM177 (UniProt Q53S58)
inactive: [1] 0.005 | crizotinib 0.033 | [2] 0.065 | [3] 0.011 | gandotinib 0.025 | [4] 0.053 | doramapimod -0.062 | bafetinib -0.123 | [5] 0.054 | nilotinib -0.001 | [6] -0.005 | dasatinib -0.045 | [7] 0.023 | [8] -0.019 | [9] 0.016 | tipifarnib 0.004 | mubritinib 0.026
active: ispinesib -0.304

TMEM184C (UniProt Q9NVA4)
inactive: [1] 0.117 | crizotinib -0.267 | [2] 0.019 | [3] -0.049 | gandotinib -0.038 | [4] 0.036 | doramapimod 0.019 | bafetinib -0.132 | [5] -0.111 | nilotinib -0.007 | [6] -0.047 | dasatinib 0.116 | [7] -0.009 | [8] 0.15 | [9] -0.092 | mubritinib 0.01
active: ispinesib -0.365

TMEM242 (UniProt Q9NWH2)
inactive: [1] 0.039 | [2] -0.093 | [3] -0.14 | duvelisib 0.076 | gandotinib 0.077 | tozasertib -0.052 | [4] 0.042 | ispinesib 0.015 | bafetinib -0.032 | [5] -0.011 | nilotinib 0.057 | [6] -0.035 | dasatinib -0.013 | [7] 0.071 | [8] 0.042 | [9] 0.085 | tipifarnib 0.067 | mubritinib 0.055

TMEM167B (UniProt Q9NRX6)
inactive: [1] 0.049 | crizotinib 0.047 | duvelisib 0.032 | gandotinib 0.046 | tozasertib -0.007 | [4] -0.013 | doramapimod -0.021 | ispinesib 0.02 | bafetinib -0.075 | [5] -0.093 | nilotinib 0.027 | [6] 0.003 | dasatinib 0.035 | [7] -0.001 | [9] -0.029 | tipifarnib 0.106 | mubritinib 0.01

TMEM173 (UniProt Q86WV6)
inactive: [1] 0.042 | crizotinib 0.147 | [2] 0.041 | [3] 0.004 | gandotinib -0.151 | [4] 0.078 | doramapimod 0.023 | ispinesib 0.037 | bafetinib 0.007 | [5] 0.019 | nilotinib -0.129 | [6] -0.013 | dasatinib -0.156 | [7] 0.003 | [8] 0.001 | [9] -0.046 | tipifarnib 0.021 | mubritinib 0.066

TMEM161A (UniProt Q9NX61)
inactive: [1] -0.038 | crizotinib -0.026 | [2] -0.006 | [3] 0.001 | gandotinib -0.156 | [4] 0.051 | doramapimod -0.023 | ispinesib -0.251 | bafetinib -0.156 | [5] 0.043 | nilotinib -0.157 | [6] 0.023 | dasatinib -0.09 | [7] -0.021 | [8] -0.05 | [9] -0.025 | tipifarnib -0.165 | mubritinib 0.027

TMEM128 (UniProt Q5BJH2)
inactive: [1] 0.001 | crizotinib 0.234 | [2] -0.062 | [3] 0.025 | [4] 0.016 | doramapimod -0.138 | ispinesib 0.021 | bafetinib -0.065 | nilotinib -0.008 | [6] 0.003 | dasatinib -0.01 | [7] -0.031 | [8] 0.061 | [9] -0.021 | tipifarnib 0.066

TMEM106B (UniProt Q9NUM4)
inactive: [1] -0.024 | [2] 0.389 | [3] -0.054 | gandotinib -0.021 | [4] 0 | doramapimod 0.014 | bafetinib -0.094 | [5] 0.035 | nilotinib -0.015 | [6] 0.02 | dasatinib 0.098 | [7] -0.007 | [8] 0.083 | tipifarnib 0.029 | mubritinib 0.023
active: crizotinib -0.382
